# Results published in patent US20060135480A1, “Derivatives of succinic and glutaric acids and analogs thereof useful as inhibitors of phex” (Enobia Pharma, priority 2002, published 2006).
# Chains of the proteins cited; added tags and fusions are not shown. Residues count along the entry.
# UniProt P78562, 53-749 limits assumed: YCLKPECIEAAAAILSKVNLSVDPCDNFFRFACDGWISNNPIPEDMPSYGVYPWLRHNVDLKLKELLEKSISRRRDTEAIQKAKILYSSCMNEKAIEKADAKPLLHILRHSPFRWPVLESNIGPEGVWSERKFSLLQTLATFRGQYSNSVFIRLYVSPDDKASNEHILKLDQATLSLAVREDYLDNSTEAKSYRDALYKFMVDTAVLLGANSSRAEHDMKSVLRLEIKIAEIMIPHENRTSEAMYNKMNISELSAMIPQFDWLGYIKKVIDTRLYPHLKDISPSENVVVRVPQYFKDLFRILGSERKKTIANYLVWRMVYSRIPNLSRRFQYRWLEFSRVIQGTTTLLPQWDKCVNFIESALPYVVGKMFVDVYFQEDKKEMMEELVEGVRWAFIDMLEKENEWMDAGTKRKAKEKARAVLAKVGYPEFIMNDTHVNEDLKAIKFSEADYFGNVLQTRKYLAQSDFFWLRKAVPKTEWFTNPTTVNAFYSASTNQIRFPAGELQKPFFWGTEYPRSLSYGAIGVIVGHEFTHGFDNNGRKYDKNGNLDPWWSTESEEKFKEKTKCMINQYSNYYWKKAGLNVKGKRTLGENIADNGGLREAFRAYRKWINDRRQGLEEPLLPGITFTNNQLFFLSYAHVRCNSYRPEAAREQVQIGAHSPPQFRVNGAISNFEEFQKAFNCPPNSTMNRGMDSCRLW
# Molecular target: sPHEX (Homo sapiens, UniProt P78562)
# Test: sPHEX inhibitor IC50 determination using a fluorogenic substrate (Abz-GFSDYK-Dnp, S3)
# Conditions: fluorogenic substrate 20 μM, 100 ng sPHEX, pH 6.5
# Experimental: The soluble form of the metallopeptidase PHEX (sPHEX) was purified to homogeneity according to the methods of Boileau and Crine (WO 00/50580). sPHEX quantity was measured with the Bradford assay (BioRad) using BSA as a standard.
# sPHEX activity was determined using a fluorogenic substrate in which an increase of fluorescence was proportional to substrate conversion to products.
# S3 was synthesized at Dr. Gilles Lajoie's laboratories (University of Western Ontario, Canada) by standard solid phase peptide synthesis. The fluorescent reaction product was excited at 320 nm to fluoresce at 420 nm. Fluorescence was recorded at 420 nm every five minutes over a one-hour period on a fluorescence plate reader (Perkin-Elmer, HTS-7000) to calculate the initial rate of the reaction. […] Enzymatic activity was determined by subtracting either the initial rate of substrate in buffer (solvolysis), or the typical reaction rate in which 5 mM EDTA was added prior to initiating the reaction.
# sPHEX inhibitor IC50 determinations were done using the tested inhibitor at various concentrations coming from a serial dilution (usually ranging from 10^−3 M to 10^−12 M) in the reaction described above. IC50 values were calculated using the iterative four parameters non-linear regression formula from the GraphPad™ software (Prism).
compound,measurement,value
CN(C)c1ccc(-c2ccc(CCNC(=O)C(CC(=O)O)CC(=O)NO)cc2)cc1 (stereo not shown),IC50,5 µM

# The match of structure and compound is tentative.
